{"source": "patent US8618101B2", "about": "“N-((1R,2S,5R)-5-(tert-butylamino)-2-((S)-3-(7-tert-butylpyrazolo[1,5-a][1,3,5]triazin-4-ylamino)-2-oxopyrrolidin-1-yl)cyclohexyl)acetamide, a dual modulator of chemokine receptor activity, crystalline forms and processes” (Bristol-Myers Squibb Company, priority 2009, dated 2013)", "assay": "Plasma levels of Example 1 and mouse MCP-1 in the 48-hour TG peritonitis model", "type": "in vivo", "details": "hCCR-2 KI mice", "description": "For the 48-hour TG peritonitis study, Example 1 was dosed twice a day with the first dose one hour prior to TG injection. Total peritoneal cell counts were obtained on isolated cells by a cell counter. Cytospins were performed to determine differential leukocyte counts. The cells were stained for 3 minutes with Wright-Giemsa Stain (Sigma-Aldrich) and then rinsed with deionized water for 5 minutes. Differential counts were calculated based on a total of 200 cells counted per sample. Blood was also collected from the retro-orbital sinus at the end of each study in EDTA for determination of drug concentration.\nThe caveat for this estimation is that only CCR-2 and its major ligand MCP-1 were taken into consideration. The receptor occupancy of a ligand in the presence of a competitive inhibitor is defined by the Gaddum equation: […]", "data": [{"compound": "CC(=O)N[C@@H]1C[C@H](NC(C)(C)C)CC[C@@H]1N1CC[C@H](Nc2ncnc3cc(C(C)(C)C)nn23)C1=O", "note": "[Example 1, N-((1R,2 S,5R)-5-(tert-Butylamino)-2-((S)-3-(7-tert-butylpyrazolo[1,5-a][1,3,5]triazin-4-ylamino)-2-oxopyrrolidin-1-yl)cyclohexyl)acetamide]", "values": [{"measurement": "Concentration of Mouse MCP-1 in plasma", "setting": "10 mg/kg oral BID", "result": 0.021, "unit": "nM"}, {"measurement": "Concentration of Mouse MCP-1 in plasma", "setting": "50 mg/kg oral BID", "result": 0.048, "unit": "nM"}, {"measurement": "Concentration of Mouse MCP-1 in plasma", "setting": "160 mg/kg oral BID", "result": 0.046, "unit": "nM"}, {"measurement": "Concentration of Mouse MCP-1 in plasma", "setting": "200 mg/kg (different study), oral BID", "result": 0.068, "unit": "nM"}]}]}
